The record followed here is PubChem BioAssay AID445 (National Center for Advancing Translational Sciences (NCATS), 2006).

This is one part of the list. Shown are side measurements of this screen, not its main read-out; they come without a call. The list favours compounds with an active or inconclusive main result. Words in brackets tell the shape of the fitted curve; partial curves, single points and poor fits give uncertain potencies.

The test is described as follows: IkB Signaling. As to conditions: ABC-DLBCL IkBa-CBG/CBR dual luciferase ratio (green luciferase fused to IkBa over red control in OCI-Ly3 lymphoma cells), 4 h; measured here: control luc red channel unless noted. In outline:
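Curves were fitted separately to fusion (green), unfused (red) and ratio luminescence, then classed by r2, magnitude and activity. Cells: OCI-Ly3, 4 h compound plus doxycycline at 37C; 10 uM MG-132 defined full response.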
Regarding `CC(C)CCn1c(=O)c2ccccc2n2c(CN(C)Cc3ccccc3)nnc12`, the half-maximal activity concentration (AC50) is 25.1 µM [falling, partial curve].
For `CCN(c1cccc(C)c1)C(CNS(=O)(=O)c1ccccc1)c1ccccc1` (configuration not stated), the AC50 is 15.8 µM [falling, partial curve].
Regarding `CCOc1ccc(NC(=O)c2cccc(N3CCCS3(=O)=O)c2)cc1`, the AC50 was 12.6 µM [falling, partial curve].
In the case of `Cc1ccc(C)c(N2CCN(C(=O)CN3C(=O)COc4ccc(S(=O)(=O)N5CCOCC5)cc43)CC2)c1`, the AC50 was 39.8 µM [rising, single point].
Consider `Cc1ccc(C)c(CNC(=O)C2CCCCN2S(=O)(=O)c2ccc(F)cc2)c1` (configuration not stated), for which the AC50 was 31.6 µM [falling, single point].
As for `Cc1cccc(-c2cc(NC(=O)c3ccccc3C)n(-c3ccccc3)n2)c1`, the AC50 is 25.1 µM [falling, single point].
Consider `O=C(Nc1ccc(F)c(Cl)c1)C1CCCN(c2ncnc3onc(-c4ccc(F)cc4)c23)C1` (configuration not stated), for which the AC50 is 12.6 µM [falling, partial curve].
Turning to `CCSc1ccccc1C(=O)n1nnc2ccccc21`, the AC50 is 6.31 µM [falling, partial curve].
For the compound `Cc1cccc(N2CCN(c3ncnc4onc(-c5ccc(F)cc5)c34)CC2C)c1` (configuration not stated), the AC50 is 20 µM [falling, single point].
Turning to `O=C(Nc1ccc(S(=O)(=O)C(F)F)cc1)c1cccc(S(=O)(=O)N2CCOCC2)c1`, the AC50 is 15.8 µM [falling, partial curve].
Take `Cc1ccc(NC(=O)CCc2nc3cccnc3n2-c2ccccc2)cc1`: the AC50 is 20 µM [falling, single point].
In the case of `CC(C)(C)C(=O)Nc1ccc(Cl)c(-c2nc3ccccc3[nH]2)c1`, the AC50 was 31.6 µM [falling, single point].
On to `O=C(Cn1c(=O)n(Cc2ccc(C(=O)NCc3ccccc3Cl)cc2)c(=O)c2ccccc21)Nc1ccc(F)cc1`, for which the AC50 was 1 µM [falling, full curve].
Take `CCN(CC)S(=O)(=O)c1ccc2c(c1)N(CC(=O)Nc1ccc(F)cc1F)C(=O)C1CCCN21` (configuration not stated): the AC50 was 12.6 µM [falling, partial curve].
As for `Cc1ccc(CNc2ccc(-c3nc(-c4cccnc4)no3)cc2[N+](=O)[O-])cc1`, the AC50 was 2.51 µM [falling, full curve].
Take `CCn1cc(C(=O)NCCc2ccc(Cl)cc2)c(=O)c2cc(S(=O)(=O)N3CCOCC3)ccc21`: the AC50 was 3.98 µM [rising, partial curve].
Under `COc1ccc(OCC(=O)N2CCN(c3cccc(C(F)(F)F)c3)CC2)cc1` stands 31.6 µM [falling, single point].
